# Screen size: about 53,000 sequences; about 3,700 (7%) were called active.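 The calls were made as follows: active = gene knockdowns whose robust z-score for IL-1 alpha signal is at least 2 or at most -2, so actives lie on both sides; inactive = the rest.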 Some of the results follow.
# Test: Components of the Cytosolic LPS Sensing Pathway: Gene Identification via Genome-wide siRNA Screen;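 also: robust z of the log signal after scaling to non-targeting control siRNA wells of the plate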
# Details: RAW264.7 macrophages, IL-1a HTRF, actives lie on both sides, screened at 100 nM (by protocol), cells primed 5 h with Pam3CSK4 first
# Outline: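 RAW264.7 mouse macrophages reverse-transfected with single siRNAs (100 nM final) for 48h, primed with Pam3CSK4 for 5 hours, then transfected with LipidA for 24 hour. Supernatant IL-1a read by HTRF; values normalized to negative-control median, log-transformed robust z-scores.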
row,Sequence,z-score
1,GGAGGAUCCUGAACGAAAATT against Med19,inactive: -0.863
2,GGCUUUUUGUGUAUUUGUUTT against Evi5,inactive: -1.43
3,GGAAAAAUCACCAGUAAAATT against Cc2d2a,inactive: -1.2
4,GCAACAAUUCUAACAGCUGTT against Lhfpl5,inactive: -0.138
5,GCGACAGAGGAAGCUUGUUTT against Mak16,inactive: 0.634
6,CCAAGGAGACUCAUCAACATT against Crebbp,inactive: -0.804
7,GGUUUCUUCGAAUUACUGUTT against Ugt1a7c,inactive: 1.02
8,GCCAGGAUAUGGAUAUGCATT against 1520401A03Rik,active: -2.06
9,GCACUAAUCAACUUAAGUCTT against Ikzf5,inactive: 0.566
10,GGAAUACGCAGUGAAAAUCTT against Phkg1,inactive: -0.103
11,GGGUCCUUUUUAGCUGUAGTT against Vdac1,active: 3.83
12,GGUGUUUGGCGAUAAUAAGTT against Zdhhc15,inactive: -0.237
13,GCUGGAUAUUUCUAAGUAUTT against A26c3,inactive: 1.9
14,GGAUGUGUCUCUGGAACAUTT against Cdc37l1,inactive: -0.272
15,GGAAAUACAGAACACAAGCTT against Plekhm3,active: 2.04
16,GCGUAUCUUCAACGUGGGATT against Khnyn,inactive: -0.614
17,GGACCAGCCAUACCUGUGATT against Ndufa7,inactive: -1.93
18,CCCUCUUGAAAUUAGUGUGTT against Dusp14,inactive: 0.405
19,GGACUGUAUCUCCAUCAAATT against Rep15,inactive: 2
20,GGACAUAGAAUCUUUACAGTT against Brwd1,inactive: -0.212
21,GCGCAGUCAGACCAUAUAUTT against Fbxl5,inactive: -0.874
22,CCGCCGUUCCUUUUGUUUCTT against Sox21,inactive: 1.3

row,Sequence,z-score
1,CCUCUUAAAACAAUACCAATT against Olr1,inactive: 1.37
2,CCGAGUUCGGGUAUCUUGGTT against Grwd1,inactive: -0.885
3,CGGUAUGUAAAUCUAUCACTT against Kctd4,inactive: -0.455
4,GCUGCUCAGAGUUAUGAUGTT against 1700088E04Rik,inactive: -0.459
5,GCCGUGAACUUGCCAUCAATT against Banf2,inactive: -0.247
6,GGGCCAAUUCAACUUUGAUTT against Uck2,inactive: 0.931
7,GGCAUGGUGUUUUACGUAUTT against Fgd6,inactive: -0.792
8,CCGGAGUUGUACAAUGAUATT against Blk,inactive: 0.958
9,GGAUCGGACUCUUUUAUAUTT against Psmd6,inactive: -0.578
10,GGUCGUAAGACAGUUGUCCTT against 4932438H23Rik,inactive: -0.715
11,GGAUACUUCUCCAUUUUCUTT against C1ra,inactive: 0.198
12,GGAACUAGAAACUUCUUUUTT against Tmem74,inactive: 0.416
13,CGUUUUUCUCUAACUUACATT against Ldlrad3,active: 2.6
14,GGAUUACCGGCAGCUGGAATT against Dnm1,active: 2.24
15,CGUUCCAGGUGAAGAUCCUTT against Tbx10,inactive: 0.203
16,GCUCAAUUGUGGAGCAGUCTT against Cd5l,inactive: -0.247
17,GCUAAAACGAACCACUAUGTT against Ephx3,inactive: 1.61
18,CCUAGCAGACUUUAACCAATT against Ptk2,inactive: -0.882
19,GGUGGCGGGAGAUGUUUUUTT against Pex6,inactive: 0.85
20,CCCAGUCCUAAGGUUCAGATT against Armcx2,inactive: -1.2
21,GGUACUUGAAGCUCCUUGGTT against Fcmr,inactive: -0.186
22,GGACAAGUUUCGGAGAAUGTT against Kirrel3,inactive: -0.0761

row,Sequence,z-score
1,GCUAUAUAAAAGAACCGAUTT against Daxx,inactive: 1.29
2,GCUAUCCCUUAAAUGCUCATT against Pamr1,inactive: -0.102
3,GGGUUCAGGAGAACUAACUTT against Tmem40,inactive: -1.92
4,GCCAUUCGAGUUUUAUAUGTT against Nlrp4f,inactive: -1.53
5,GGAGAAAAGGAAGUAAACUTT against Aldh9a1,inactive: 0.741
6,GCCACCUUAACAUUAGCCUTT against Osgin1,inactive: -0.795
7,GGAAUAGACAUCAAUGUUATT against Slf1,inactive: -0.832
8,CCCUAACUCAGACUCCAUGTT against Pianp,inactive: -0.0392
9,GCCAAUGAGACUAAAUACGTT against Abca17,inactive: 0.856
10,CCUACCAGUACCUAGAACUTT against Slc5a5,inactive: 1.51
11,CGACUAUAGACUCUUGAAUTT against 1810037I17Rik,inactive: 0.573
12,CCAAACCUGAGACCUAUUGTT against Lamb3,inactive: -0.922
13,CGGACACAUUGACUGAAUATT against Adgrl1,inactive: -1.45
14,GGAGAUCCUUCAUUACCUGTT against Psap,inactive: -1.34
15,GGAGGAAGAAGUAGUACUUTT against Nup43,inactive: 0.921
16,GCUCAAGUCGAAAAGUUGCTT against Gpc4,inactive: -0.645
17,CGAAGUGAGAAUUGAAUUUTT against Zp2,inactive: 1.51
18,GGAUUCAUUUUGUGAGUGATT against Pax8,inactive: 0.35
19,CGCUGAUGAACUCUUUUCUTT against Ces1g,inactive: -0.342
20,CCAUUGCAUGCAAUGACUATT against S100a10,inactive: -1.25
21,GGCCUUGAGGCUAUUCAUGTT against Stk16,inactive: 1.2
22,GGAGAAGCAUUAUUUUGAATT against Myb,inactive: 0.798

# Quoted at random: 2 records from the list.
row,Sequence,z-score
7,GGAAUAGACAUCAAUGUUATT against Slf1,inactive: -0.832
1,CCUCUUAAAACAAUACCAATT against Olr1,inactive: 1.37

# (listing goes on)

row,Sequence,z-score
1,GGACAUUUUCUACGUUGAATT against Phax,inactive: 0.974
2,GGUGCGUUAUGGGUUUGUUTT against Ppm1b,inactive: 1.53
3,GGUUUGUGGUGGUAUUUAATT against Man2a2,active: 2.47
4,GCUGUUUUGGUAGAUUUUGTT against Map3k8,inactive: 0.0466
5,GGGUUUCAAUGGCACAAUUTT against Kif3b,active: 2.12
6,CCCACUGUGUUUGUAAAGATT against Adgre4,inactive: -0.727
7,GGUCUUCGAUGUCUUGUAGTT against Kdm2a,inactive: -0.49
8,UUAUGACACGCUCAAACUATT against Khdc1a,inactive: 0.47
9,CGAAGUGGUUAACCACCUCTT against Spaca9,inactive: -1.01
10,CGCAUAAUGGAUGAGAGGATT against Mef2a,inactive: 0.871
11,GCUAUUGUAGUGGUUACUGTT against Vmn2r57,active: 2.21
12,CCCAAGAGUGUUUGAGAACTT against Zbtb43,inactive: 0.213
13,GGUCGAUUGAUAUACAAAATT against Gdf6,inactive: 0.834
14,GGACAACUUCAACAGCACUTT against Rab13,inactive: -1.31
15,GGAUCAACGGAUUUUAGAATT against Gcfc2,inactive: 1.21
16,CGAGUAUGACACCUUCGACTT against Adgrg3,inactive: -0.424
17,CCUGCUCCAACGUAAUGUCTT against Ldhc,inactive: -0.65
18,AGAGCAAAAACUCGAGCACTT against Sox15,inactive: -0.253
19,CCAACACCCAAUAAUAGCGTT against Elfn2,inactive: -0.231
20,GCUUGUAAAUGGAACGACATT against 0610012G03Rik,inactive: -0.69
21,GGGUUCAUUUCUCAAAAUUTT against Nol7,inactive: -0.831
22,GGAAAGUAACUAAAGGCAATT against Arl8b,inactive: 0.274

# Some of the entries so far, with bars between the fields:
row | Sequence | z-score
10 | GGAAUACGCAGUGAAAAUCTT against Phkg1 | inactive: -0.103
13 | CGUUUUUCUCUAACUUACATT against Ldlrad3 | active: 2.6
14 | GGAUUACCGGCAGCUGGAATT against Dnm1 | active: 2.24
3 | GGGUUCAGGAGAACUAACUTT against Tmem40 | inactive: -1.92

# (cont.)

row,Sequence,z-score
1,GGCAUAAUGUGAAAAAAUGTT against P2ry10,inactive: -0.511
2,CCAAUCUUCACAAUGGCUCTT against Smpd1,inactive: -0.367
3,GGAAAAUCCAGAGGCUACGTT against Creg1,inactive: -0.186
4,GGUGACGAGACAUUUAUUATT against Elovl5,inactive: -1.11
5,GCAAACCCACACGAAGCAATT against BC043934,inactive: 1.04
6,GGUUAAAUAAUCCACAAGCTT against Fam243,inactive: 1.21
7,CCUGUCAAUGAAACCAAGCTT against Cox19,inactive: 0.678
8,GGUCUUCCGAUGAACAAUCTT against Etfdh,inactive: 1.23
9,GGAACAGAAAUUCUAUGAGTT against Ip6k3,inactive: 0.097
10,GCCAGGUUGACAAUGGUUCTT against Ttf2,inactive: 1.57
11,GCAACUAUCCACUCUCUGCTT against Emg1,inactive: 0.977
12,GGGCGAAAGCCAAUUUUAGTT against Ddx3y,inactive: 0.216
13,GGCAAUUGUGUAUCAAUAUTT against Acadl,inactive: -0.578
14,GGAAGAUGACAGUGCUGUATT against Utp25,inactive: -0.868
15,GGUUCACUCUGAAGACACCTT against Pkig,inactive: 0.0516
16,CCCUAGAAGAAUCAAGCUCTT against Prune2,inactive: -1.35
17,GGACUUUGCCAUUCUUCACTT against Krtap6-1,inactive: -0.567
18,GGGACACAAUUCUUUGAAATT against Vash1,inactive: -1.69
19,GCGACACAUUCGAUCUCAGTT against Mecom,active: 4.11

# — PubChem BioAssay AID1508600 (Functional Genomics Laboratory (NCATS/FGL), 2020)
